Reference: the supplement of paper PMC10849652
Some of the results follow.

Sequences of proteins named here, by UniProt entry; tags and fusion partners are left off. A change or cut given only in a name is not applied to a line headed by its entry.
UniProt Q9NRG1: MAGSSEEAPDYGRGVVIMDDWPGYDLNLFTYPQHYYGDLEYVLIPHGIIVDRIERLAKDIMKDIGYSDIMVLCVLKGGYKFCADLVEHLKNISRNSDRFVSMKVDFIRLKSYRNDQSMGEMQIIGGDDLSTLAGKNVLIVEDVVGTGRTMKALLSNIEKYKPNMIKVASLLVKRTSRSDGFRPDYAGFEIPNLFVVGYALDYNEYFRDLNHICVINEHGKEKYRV
UniProt P35998: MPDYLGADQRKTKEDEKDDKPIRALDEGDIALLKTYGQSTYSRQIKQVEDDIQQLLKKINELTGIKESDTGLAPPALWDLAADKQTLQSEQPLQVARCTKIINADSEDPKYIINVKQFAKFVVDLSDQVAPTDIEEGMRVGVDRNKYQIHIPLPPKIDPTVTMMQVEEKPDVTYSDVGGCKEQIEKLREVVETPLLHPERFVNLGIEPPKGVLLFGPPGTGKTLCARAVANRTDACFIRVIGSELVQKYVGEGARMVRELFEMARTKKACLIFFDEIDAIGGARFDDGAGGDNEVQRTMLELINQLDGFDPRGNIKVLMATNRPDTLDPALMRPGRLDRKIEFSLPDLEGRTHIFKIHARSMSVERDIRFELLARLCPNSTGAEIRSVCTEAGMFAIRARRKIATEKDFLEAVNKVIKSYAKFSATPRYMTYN
UniProt Q53H96: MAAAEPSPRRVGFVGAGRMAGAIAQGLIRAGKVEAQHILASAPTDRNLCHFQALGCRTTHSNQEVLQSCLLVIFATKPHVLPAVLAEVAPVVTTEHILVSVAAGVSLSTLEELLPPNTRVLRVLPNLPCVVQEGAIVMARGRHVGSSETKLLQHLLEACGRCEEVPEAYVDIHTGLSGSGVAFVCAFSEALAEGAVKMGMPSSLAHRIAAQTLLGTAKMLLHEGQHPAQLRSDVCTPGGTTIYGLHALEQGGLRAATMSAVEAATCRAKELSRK
UniProt P28066: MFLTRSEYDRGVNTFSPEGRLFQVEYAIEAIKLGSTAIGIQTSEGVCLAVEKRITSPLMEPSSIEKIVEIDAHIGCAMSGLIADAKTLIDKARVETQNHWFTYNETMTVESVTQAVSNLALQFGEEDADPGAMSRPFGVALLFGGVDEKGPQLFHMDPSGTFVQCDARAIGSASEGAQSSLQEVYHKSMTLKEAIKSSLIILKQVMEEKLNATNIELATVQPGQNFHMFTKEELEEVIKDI
UniProt Q9Y617: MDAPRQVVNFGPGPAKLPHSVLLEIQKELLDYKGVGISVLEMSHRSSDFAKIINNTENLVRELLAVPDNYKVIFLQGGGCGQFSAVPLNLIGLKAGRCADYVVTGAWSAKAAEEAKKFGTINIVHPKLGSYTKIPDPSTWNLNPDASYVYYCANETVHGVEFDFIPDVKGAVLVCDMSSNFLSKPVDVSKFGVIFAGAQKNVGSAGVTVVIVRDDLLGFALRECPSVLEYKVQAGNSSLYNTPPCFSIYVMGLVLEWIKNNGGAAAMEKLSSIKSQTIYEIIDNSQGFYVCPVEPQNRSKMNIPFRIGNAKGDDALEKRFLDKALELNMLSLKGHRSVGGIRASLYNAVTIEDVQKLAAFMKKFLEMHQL
UniProt O75475: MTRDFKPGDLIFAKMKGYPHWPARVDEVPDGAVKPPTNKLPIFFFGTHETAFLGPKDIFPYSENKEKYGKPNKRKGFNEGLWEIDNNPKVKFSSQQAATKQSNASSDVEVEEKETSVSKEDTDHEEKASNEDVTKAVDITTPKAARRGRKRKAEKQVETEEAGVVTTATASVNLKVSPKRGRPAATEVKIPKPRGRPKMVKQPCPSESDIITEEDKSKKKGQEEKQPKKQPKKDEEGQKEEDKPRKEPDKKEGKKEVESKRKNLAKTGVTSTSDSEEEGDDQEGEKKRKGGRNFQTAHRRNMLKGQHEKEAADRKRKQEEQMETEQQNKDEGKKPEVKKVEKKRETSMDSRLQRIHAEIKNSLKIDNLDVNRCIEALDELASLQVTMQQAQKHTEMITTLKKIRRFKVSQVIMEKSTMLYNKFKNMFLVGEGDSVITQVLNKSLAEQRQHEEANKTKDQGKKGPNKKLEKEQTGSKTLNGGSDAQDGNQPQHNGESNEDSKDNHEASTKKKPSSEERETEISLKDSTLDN
UniProt O00233: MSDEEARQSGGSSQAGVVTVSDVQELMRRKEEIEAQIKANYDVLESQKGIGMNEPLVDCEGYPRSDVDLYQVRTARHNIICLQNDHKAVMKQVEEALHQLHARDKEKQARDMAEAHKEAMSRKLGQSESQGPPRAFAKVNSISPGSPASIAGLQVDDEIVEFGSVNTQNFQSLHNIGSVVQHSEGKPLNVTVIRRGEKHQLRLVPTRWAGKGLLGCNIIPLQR
UniProt Q7Z7A4: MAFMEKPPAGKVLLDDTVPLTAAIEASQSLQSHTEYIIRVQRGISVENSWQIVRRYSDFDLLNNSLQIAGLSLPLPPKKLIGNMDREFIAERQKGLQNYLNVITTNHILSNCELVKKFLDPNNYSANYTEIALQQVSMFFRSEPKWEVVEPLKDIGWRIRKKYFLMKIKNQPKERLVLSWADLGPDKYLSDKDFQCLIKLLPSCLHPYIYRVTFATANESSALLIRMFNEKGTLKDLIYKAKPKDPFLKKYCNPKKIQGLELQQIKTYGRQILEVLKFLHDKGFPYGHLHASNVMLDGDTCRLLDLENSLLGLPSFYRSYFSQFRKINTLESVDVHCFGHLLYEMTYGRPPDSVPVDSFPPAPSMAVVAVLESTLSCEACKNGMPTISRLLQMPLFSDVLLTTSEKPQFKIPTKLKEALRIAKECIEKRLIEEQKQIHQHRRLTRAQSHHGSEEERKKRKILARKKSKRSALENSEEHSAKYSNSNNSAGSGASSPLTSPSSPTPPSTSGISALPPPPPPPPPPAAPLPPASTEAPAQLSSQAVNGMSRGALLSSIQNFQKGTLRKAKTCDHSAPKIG
UniProt P07602: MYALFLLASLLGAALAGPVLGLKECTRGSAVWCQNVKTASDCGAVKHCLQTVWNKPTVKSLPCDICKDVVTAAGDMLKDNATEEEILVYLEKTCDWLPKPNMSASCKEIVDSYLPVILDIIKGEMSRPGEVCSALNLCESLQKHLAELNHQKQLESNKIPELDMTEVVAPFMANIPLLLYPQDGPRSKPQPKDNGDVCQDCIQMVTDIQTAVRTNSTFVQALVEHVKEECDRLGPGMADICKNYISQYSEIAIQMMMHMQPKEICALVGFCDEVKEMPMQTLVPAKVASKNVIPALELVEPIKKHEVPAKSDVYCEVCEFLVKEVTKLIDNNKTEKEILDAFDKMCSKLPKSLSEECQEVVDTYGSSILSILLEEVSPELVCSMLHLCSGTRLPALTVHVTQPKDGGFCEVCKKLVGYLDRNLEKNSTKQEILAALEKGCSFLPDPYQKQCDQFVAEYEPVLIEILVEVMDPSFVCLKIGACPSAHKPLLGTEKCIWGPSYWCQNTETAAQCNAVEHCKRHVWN
UniProt P28072: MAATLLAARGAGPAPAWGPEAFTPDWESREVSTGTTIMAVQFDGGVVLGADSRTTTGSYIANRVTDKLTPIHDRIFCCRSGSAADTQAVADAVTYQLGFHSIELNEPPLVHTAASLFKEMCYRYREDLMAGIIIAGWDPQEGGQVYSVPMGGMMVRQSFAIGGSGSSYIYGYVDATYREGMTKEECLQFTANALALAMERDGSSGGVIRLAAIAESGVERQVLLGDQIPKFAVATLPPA
UniProt P06737: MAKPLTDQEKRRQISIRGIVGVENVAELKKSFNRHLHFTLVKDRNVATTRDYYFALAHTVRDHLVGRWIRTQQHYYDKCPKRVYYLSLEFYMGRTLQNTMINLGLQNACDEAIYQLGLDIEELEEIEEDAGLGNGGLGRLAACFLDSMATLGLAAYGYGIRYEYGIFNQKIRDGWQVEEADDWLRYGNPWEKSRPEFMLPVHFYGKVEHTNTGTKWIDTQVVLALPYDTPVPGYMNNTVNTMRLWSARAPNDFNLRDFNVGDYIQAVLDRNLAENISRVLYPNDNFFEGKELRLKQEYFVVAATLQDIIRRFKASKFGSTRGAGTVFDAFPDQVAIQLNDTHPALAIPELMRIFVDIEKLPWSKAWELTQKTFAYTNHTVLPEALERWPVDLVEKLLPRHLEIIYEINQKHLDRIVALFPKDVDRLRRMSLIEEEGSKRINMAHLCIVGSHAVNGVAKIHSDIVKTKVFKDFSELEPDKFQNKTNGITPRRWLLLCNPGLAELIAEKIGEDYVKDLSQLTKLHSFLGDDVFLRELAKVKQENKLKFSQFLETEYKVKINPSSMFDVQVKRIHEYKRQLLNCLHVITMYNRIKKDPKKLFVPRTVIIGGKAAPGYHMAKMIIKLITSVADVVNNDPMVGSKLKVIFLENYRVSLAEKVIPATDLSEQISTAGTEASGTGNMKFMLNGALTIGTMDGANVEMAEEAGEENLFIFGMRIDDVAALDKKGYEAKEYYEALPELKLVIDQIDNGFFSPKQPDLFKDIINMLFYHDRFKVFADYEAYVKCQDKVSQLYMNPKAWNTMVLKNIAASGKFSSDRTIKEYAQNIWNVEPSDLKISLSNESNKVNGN
UniProt Q8WUK0: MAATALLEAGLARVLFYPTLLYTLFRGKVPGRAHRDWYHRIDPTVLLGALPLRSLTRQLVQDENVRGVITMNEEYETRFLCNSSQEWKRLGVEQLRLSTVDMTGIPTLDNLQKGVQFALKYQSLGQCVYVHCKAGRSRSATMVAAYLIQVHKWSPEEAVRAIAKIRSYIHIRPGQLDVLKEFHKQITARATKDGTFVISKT
UniProt P20962: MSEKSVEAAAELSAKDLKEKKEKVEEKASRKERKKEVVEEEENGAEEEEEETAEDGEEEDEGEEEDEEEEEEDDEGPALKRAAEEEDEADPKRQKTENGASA
UniProt Q6GMV3: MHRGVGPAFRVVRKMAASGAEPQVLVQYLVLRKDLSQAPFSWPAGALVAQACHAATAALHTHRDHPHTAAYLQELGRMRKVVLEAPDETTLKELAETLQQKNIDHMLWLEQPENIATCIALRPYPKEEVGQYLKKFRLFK
UniProt P25786: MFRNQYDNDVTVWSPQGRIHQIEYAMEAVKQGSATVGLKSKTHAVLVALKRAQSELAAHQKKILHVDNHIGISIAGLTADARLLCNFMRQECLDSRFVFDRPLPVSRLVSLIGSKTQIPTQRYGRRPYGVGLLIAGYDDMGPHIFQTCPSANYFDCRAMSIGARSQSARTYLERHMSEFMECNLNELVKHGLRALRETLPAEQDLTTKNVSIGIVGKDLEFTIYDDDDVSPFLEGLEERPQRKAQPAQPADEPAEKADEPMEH
UniProt Q14289, whole entry, looked up: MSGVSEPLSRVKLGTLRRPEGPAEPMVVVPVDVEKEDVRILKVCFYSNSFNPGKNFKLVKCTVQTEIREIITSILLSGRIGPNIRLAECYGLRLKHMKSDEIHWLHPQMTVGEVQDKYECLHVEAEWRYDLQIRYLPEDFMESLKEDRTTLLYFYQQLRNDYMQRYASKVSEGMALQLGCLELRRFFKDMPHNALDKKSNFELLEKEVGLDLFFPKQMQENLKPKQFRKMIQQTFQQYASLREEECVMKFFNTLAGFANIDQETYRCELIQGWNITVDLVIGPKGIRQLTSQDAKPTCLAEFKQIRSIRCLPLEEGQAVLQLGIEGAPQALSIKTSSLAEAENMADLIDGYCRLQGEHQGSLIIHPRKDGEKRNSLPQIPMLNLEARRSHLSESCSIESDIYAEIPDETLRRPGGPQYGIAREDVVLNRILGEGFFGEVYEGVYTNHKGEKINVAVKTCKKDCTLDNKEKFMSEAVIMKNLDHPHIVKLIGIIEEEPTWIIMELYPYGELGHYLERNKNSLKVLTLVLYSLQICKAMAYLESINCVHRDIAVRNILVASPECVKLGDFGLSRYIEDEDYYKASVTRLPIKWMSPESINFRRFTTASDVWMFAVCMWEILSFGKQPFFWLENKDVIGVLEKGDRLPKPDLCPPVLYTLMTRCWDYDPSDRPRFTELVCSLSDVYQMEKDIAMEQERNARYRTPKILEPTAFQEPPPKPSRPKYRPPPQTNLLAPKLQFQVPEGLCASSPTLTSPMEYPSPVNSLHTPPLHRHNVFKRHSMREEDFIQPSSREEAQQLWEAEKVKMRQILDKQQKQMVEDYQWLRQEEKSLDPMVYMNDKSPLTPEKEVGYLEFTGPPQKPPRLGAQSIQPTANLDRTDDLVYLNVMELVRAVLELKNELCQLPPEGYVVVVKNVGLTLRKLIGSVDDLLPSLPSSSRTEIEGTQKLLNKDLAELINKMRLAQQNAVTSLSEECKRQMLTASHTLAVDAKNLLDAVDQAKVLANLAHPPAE
UniProt Q15008: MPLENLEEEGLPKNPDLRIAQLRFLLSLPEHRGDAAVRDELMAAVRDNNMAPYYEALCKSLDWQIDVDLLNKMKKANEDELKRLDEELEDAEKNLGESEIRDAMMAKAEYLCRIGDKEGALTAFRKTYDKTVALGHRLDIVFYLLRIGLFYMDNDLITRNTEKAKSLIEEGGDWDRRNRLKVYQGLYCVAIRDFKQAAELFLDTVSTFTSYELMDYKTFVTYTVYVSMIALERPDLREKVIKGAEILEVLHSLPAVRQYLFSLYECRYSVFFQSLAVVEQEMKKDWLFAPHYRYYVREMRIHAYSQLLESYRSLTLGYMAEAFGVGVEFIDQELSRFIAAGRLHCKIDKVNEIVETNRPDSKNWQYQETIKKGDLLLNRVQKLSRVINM

compound: Cc1cccc(CC(=O)N2CCc3c2ccc(-c2cn(C)c4ncnc(N)c24)c3F)n1; test: log2 fold change, soluble protein after heating vs DMSO (PISA); higher = thermal stabilisation; K562 cells, 10 uM, 30 min; active = over 0.2 and 3.5 SD of the protein, either way, in both replicates (recomputed)
Summary of the method: (§1)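 Soluble protein was defined as the supernatant after 21,000xg for 90 min. It came from K562 cells at 2×10^6 cells/mL given 10 μM compound for 30 min, heated in aliquots for 3 min across 48°C-58°C, pooled, and extracted in PBS with 0.5% NP-40 at 4°C, and was quantified by TMTpro 16plex LC-MS/MS with equalised channel sums. Thermal stability against control samples, from duplicates, is reported as log2 fold change.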

log2 fold change, inactive:
PRTFDC1 (UniProt Q9NRG1) -0.028
PSMC2 (UniProt P35998) 0.029
PYCR3 (UniProt Q53H96) 0.011
PSMA5 (UniProt P28066) -0.015
PSAT1 (UniProt Q9Y617) -0.015
PSIP1 (UniProt O75475) -0.011
PSMD9 (UniProt O00233) 0.199
PXK (UniProt Q7Z7A4) 0.086
PSAP isoform 3 (UniProt P07602) -0.091
PSMB6 (UniProt P28072) -0.053
PYGL (UniProt P06737) 0.006

compound: Cc1cn(-c2cc(NC(=O)c3ccc(C)c(Nc4nccc(-c5cccnc5)n4)c3)cc(C(F)(F)F)c2)cn1 [nilotinib]; test: as above
Summary of the method: as §1

log2 fold change, inactive:
PUS10 (UniProt Q3MIT2) 0.071
PTPN12 (UniProt Q05209) -0.022
PSMC1 (UniProt P62191) -0.025
PTPMT1 (UniProt Q8WUK0) 0.069
PTMS (UniProt P20962) 0.041
PUM2 (UniProt Q8TB72) 0.064
PWP2 (UniProt Q15269) -0.03
PTER (UniProt Q96BW5) -0.014
PSMD13 (UniProt Q9UNM6) -0.002
QTRT2 isoform 4 (UniProt Q9H974) 0.016
PSMC5 (UniProt P62195) -0.041
PTRHD1 (UniProt Q6GMV3) 0.08
PTDSS2 (UniProt Q9BVG9) -0.052
PTAR1 (UniProt Q7Z6K3) 0.034
QKI (UniProt Q96PU8) -0.015
PSTPIP2 (UniProt Q9H939) 0.009
PSMA1 isoform 2 (UniProt P25786) 0.006
PTK2B (UniProt Q14289) 0.14
PWP1 (UniProt Q13610) 0.026
PRXL2B isoform 3 (UniProt Q8TBF2) 0.101
PTDSS1 (UniProt P48651) -0.166
PSMA2 (UniProt P25787) 0.016
PSMD6 (UniProt Q15008) 0.022
PRTFDC1 (UniProt Q9NRG1) -0.014
PSMC2 (UniProt P35998) -0.019
PYCR3 (UniProt Q53H96) 0.015
PSMA5 (UniProt P28066) 0.002
PSAT1 (UniProt Q9Y617) 0.03
PSIP1 (UniProt O75475) -0.028
PSMD9 (UniProt O00233) -0.011
PXK (UniProt Q7Z7A4) -0.026
PSAP isoform 3 (UniProt P07602) 0.022
PSMB6 (UniProt P28072) 0.028
PYGL (UniProt P06737) -0.202

compound: Cc1nc(Nc2n[nH]c3c2CN(C(=O)N[C@H](CN(C)C)c2ccccc2)C3(C)C)c2sccc2n1; test: as above
Summary of the method: as §1

log2 fold change, inactive:
PUS10 (UniProt Q3MIT2) 0.006
PTPN12 (UniProt Q05209) -0.122
PSMC1 (UniProt P62191) 0.062
PTPMT1 (UniProt Q8WUK0) -0.013
PTMS (UniProt P20962) -0.042
PUM2 (UniProt Q8TB72) 0.029
PWP2 (UniProt Q15269) -0.074
PTER (UniProt Q96BW5) 0.016
PSMD13 (UniProt Q9UNM6) 0.082
QTRT2 isoform 4 (UniProt Q9H974) -0.009
PSMC5 (UniProt P62195) 0.035
PTRHD1 (UniProt Q6GMV3) -0.032
PTDSS2 (UniProt Q9BVG9) -0.009
PTAR1 (UniProt Q7Z6K3) -0.012
QKI (UniProt Q96PU8) -0.105
PSTPIP2 (UniProt Q9H939) -0.076
PSMA1 isoform 2 (UniProt P25786) 0.057
PTK2B (UniProt Q14289) 0.104
PWP1 (UniProt Q13610) 0.285
PRXL2B isoform 3 (UniProt Q8TBF2) -0.043
PTDSS1 (UniProt P48651) 0.084
PSMA2 (UniProt P25787) 0.03
PSMD6 (UniProt Q15008) 0.054
PRTFDC1 (UniProt Q9NRG1) 0.029
PSMC2 (UniProt P35998) 0.044
PYCR3 (UniProt Q53H96) 0.019
PSMA5 (UniProt P28066) 0.034
PSAT1 (UniProt Q9Y617) 0.004
PSIP1 (UniProt O75475) 0.033
PSMD9 (UniProt O00233) 0.016
PXK (UniProt Q7Z7A4) 0.025
PSAP isoform 3 (UniProt P07602) -0.01
PSMB6 (UniProt P28072) 0.049
PYGL (UniProt P06737) 0.036
